# Small-molecule microarray binding calls

Calls as published in the ROBIN set (doi:10.1002/anie.202211358).

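Compounds were printed on reactive glass slides in duplicate spots, a dye-labelled oligonucleotide was laid over them, and the fluorescence left after washing was read. The data file lists only calls. An earlier report of the laboratory on the PreQ1, TPP and SAM-II riboswitches (doi:10.1038/s41467-019-09493-3) used 1 µM RNA for 2 h and required a mean Z-score above 3 (spot signal-to-noise against the whole library), a score well above that on a control array, and duplicate spots agreeing (coefficient of variation under 100); it then also set aside compounds that hit other targets, which this list keeps. The cut-offs behind this list may differ. These are primary screening calls, not affinities; a compound without a hit may have attached poorly or may still bind in solution.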
Key: active = hit, inactive = tested without a hit.
The compounds are a random part of those screened.
A target missing from an entry has no call listed here.
A dash means that no call is listed here.

Targets (5′ to 3′):
T1: SAM-II riboswitch RNA pseudoknot, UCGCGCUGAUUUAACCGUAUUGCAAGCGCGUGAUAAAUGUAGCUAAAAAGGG. Hit rate about 1% of about 21,000 compounds.
T2: TPP riboswitch RNA three-way junction, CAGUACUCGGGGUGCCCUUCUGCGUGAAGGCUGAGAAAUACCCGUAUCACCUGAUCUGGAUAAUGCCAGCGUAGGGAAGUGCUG. Hit rate about 0.7% of about 24,000 compounds.
T3: PreQ1 riboswitch RNA pseudoknot, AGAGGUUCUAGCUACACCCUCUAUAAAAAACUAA. From B. subtilis. Hit rate about 0.7% of about 24,000 compounds.

| compound | T1 | T2 | T3 |
|---|---|---|---|
| `CC1(C)CC(=O)C2=C(C1)OC(N)=C(C#N)C2CCc1ccccc1` (stereo not given) | inactive | inactive | inactive |
| `COc1cc(NC(=O)CNCc2cc(F)ccc2F)ccc1Cl` | inactive | inactive | inactive |
| `CC(=O)c1c(N)nc2n(c1=O)CCCCC2` | inactive | inactive | inactive |
| `CC1=C(N)c2ccc(Oc3ccccc3)cc2S1(=O)=O` | inactive | inactive | inactive |
| `Nc1nc(NC(=O)C(Cc2ccc(Cl)cc2)NC(=O)Cc2ccccc2)n[nH]1` (stereo not given) | inactive | inactive | inactive |
| `O=C(NN=Cc1cn(-c2ccccc2)nc1-c1ccc(F)cc1)C(O)c1ccccc1` (stereo not given) | inactive | inactive | inactive |
| `CCOC(=O)c1cnc2ccc(Cl)cc2c1Nc1cccc(C(=O)OC)c1` | inactive | inactive | inactive |
| `CCNC(=O)[C@@H]1C[C@@H](NC(=O)CO)CN1Cc1ccc(C2CCCC2)s1` | inactive | inactive | inactive |
| `CCOC(=O)c1cnn(-c2cc(C)nc3c(C)c(-c4ccc(C)cc4)nn23)c1N` | - | inactive | inactive |
| `COc1ccc(C2C(C#N)=C(N)OC3=C2C(=O)CCC3)cc1O` (stereo not given) | inactive | inactive | inactive |
| `CCOc1ccc([C@@H]2C[C@H](c3ccccc3C)n3nc(N)nc3N2)cc1` | inactive | inactive | inactive |
| `CCOC(=O)C(CCSC)NC(=O)CN` (stereo not given) | inactive | inactive | inactive |
| `CCn1nc(CCSC)nc1-c1ccc(N(C)CCO)cc1` | inactive | inactive | inactive |
| `OC(COc1ccc(I)cc1)Cn1nnc2ccccc21` (stereo not given) | inactive | inactive | inactive |
| `CCCn1cnc2cc(NCc3cccc(Br)c3)ccc21` | inactive | inactive | inactive |
| `Cn1c(=O)n(C)c2cc(C(O)COc3ccc(CNCc4ccccc4)cc3)ccc21` (stereo not given) | - | inactive | inactive |
| `C1=C(CCNCc2ccccn2)CCCC1.Cl` | inactive | inactive | inactive |
| `CSc1nc(NC(C)C)c(C#N)c(-c2ccc(Cl)cc2)n1` | - | inactive | inactive |
| `CN(C)CCNC1=CC(=O)CC(c2ccccc2)C1` (stereo not given) | inactive | inactive | inactive |
| `COc1ccccc1CNC(=O)c1nnn(Cc2cccc(Br)c2)c1N` | inactive | inactive | inactive |
| `O=[N+]([O-])c1cccnc1Oc1cc(Cl)c(Cl)cc1Cl` | inactive | inactive | inactive |
| `Cc1cc(C)n2nc(CNc3ccccc3)nc2n1` | - | inactive | inactive |
| `Cc1cc(N2CCn3nc(C(=O)NCCO)cc3C2)nc(-c2ccccc2O)n1` | inactive | inactive | inactive |
| `Cc1ccc(C(C)C)c(OCC(O)CNC(C)(C)C)c1` (stereo not given) | inactive | inactive | inactive |
| `CC(C)Cc1cc(-c2cccc(Br)c2)c(C#N)c(N)n1` | inactive | inactive | inactive |
| `Nc1ncccc1CN1CCC(c2nnc(Cn3cccn3)n2C2CC2)CC1` | inactive | inactive | inactive |
| `Cc1cc(C(F)(F)F)c2c(N)c(C(=O)c3ccc(Br)cc3)sc2n1` | inactive | inactive | inactive |
| `OCC#Cc1ccc(-c2nccn2C[C@H]2CCc3ccccc3O2)s1` | inactive | inactive | inactive |
| `N#Cc1ccnc(N2CCC3(CCC(=O)N(CCO)C3)CC2)c1` | inactive | inactive | inactive |
| `C=CCOc1ccc(Br)cc1C1C(C#N)=C(N)Oc2cc(O)ccc21` (stereo not given) | inactive | inactive | inactive |
| `COc1ccc(C(=O)c2sc3nc(-c4ccccc4OC)ccc3c2N)cc1OC` | inactive | inactive | inactive |
| `Brc1ccc(-c2ccc(CNCC3CCCO3)o2)cc1` (stereo not given) | - | inactive | inactive |
| `CCOc1ccccc1CCNC(=O)C(N)c1c(C)n[nH]c1C` (stereo not given) | inactive | inactive | inactive |
| `Cc1[nH]c2ccc(C(=O)O)cc2c1CCN` | inactive | inactive | inactive |
| `C=CCN1CC[C@@]23c4c5ccc(O)c4O[C@H]2C(=O)CC[C@@]3(O)[C@H]1C5` | inactive | inactive | inactive |
| `Cc1cc(C)c(C(=O)N2CCC3(CC2)CNC(C(=O)O)C3)cn1` (stereo not given) | inactive | inactive | inactive |
| `N#CC1=C(N)N(c2ccc(F)cc2)C2=C(C1c1cccc(Cl)c1)S(=O)(=O)CC2` (stereo not given) | inactive | inactive | inactive |
| `Cc1ccc(-c2noc(-c3nnn(-c4cccc(C)c4)c3N)n2)cc1` | - | inactive | inactive |
| `O=C1OC2(CCNCC2)CN1CC(=O)N1CCC1c1cccs1` (stereo not given) | inactive | inactive | inactive |
| `Cc1sc2ncnc(N[C@@H](CCCCN)C(=O)O)c2c1C` | inactive | inactive | inactive |
| `CON=C(C(=O)N[C@@H]1C(=O)N2C(C(=O)O)=C(Cn3ccc(=N)n3CCO)CS[C@H]12)c1csc(N)n1` | inactive | inactive | inactive |
| `C1=C(CCNc2nc(N3CCOCC3)nc(N3CCOCC3)n2)CCCC1` | inactive | inactive | inactive |
| `NCc1ccoc1C(=O)O` | inactive | inactive | inactive |
| `c1nc2c(c(N3CCc4sccc4C3)n1)CCNCC2` | inactive | inactive | inactive |
| `Cc1noc(CN(C)C(=O)C2(Oc3ccc(Cl)cc3)CCNCC2)n1` | inactive | inactive | inactive |
| `COc1ccc(S(=O)(=O)N(CC(=O)NC2CCCCC2O)c2ccc(C)cc2)cc1OC` (stereo not given) | inactive | inactive | inactive |
| `CN(C1CCCCC1)S(=O)(=O)c1cccc(N)c1` | - | inactive | inactive |
| `CCOC(=O)C1(C)C=C(Nc2ccccc2)C(=O)N1c1ccccc1` (stereo not given) | inactive | inactive | inactive |
| `Fc1ccccc1Nc1ncnc2sc3c(c12)CCCC3` | inactive | inactive | inactive |
| `Cc1ccc(CSc2nc(C)c(CCO)c(=O)[nH]2)cc1` | inactive | inactive | inactive |
| `CCC1=C(c2ccc(C)cc2)S(=O)(=O)N=C1NCC(=O)O` | - | inactive | inactive |
| `CCCCCCn1c(N)c(C(=O)OCC)c2nc3ccccc3nc21` | inactive | inactive | inactive |
| `COc1ccc(CN(C)c2cc(C3CCCNC3)nc(C)n2)cc1` (stereo not given) | inactive | inactive | inactive |
| `O=C(Nc1ccc(F)cc1F)C1=C(NCCO)c2ccccc2S1(=O)=O` | - | inactive | inactive |
| `COc1ccc(-c2nc(N)sc2-c2ccc(OC)cc2)cc1` | inactive | inactive | active |
| `COc1ccccc1N(CC(O)COc1ccccc1C)S(=O)(=O)c1ccccc1` (stereo not given) | inactive | inactive | inactive |

The first 4 entries again:

{"compound": "CC1(C)CC(=O)C2=C(C1)OC(N)=C(C#N)C2CCc1ccccc1", "stereo": "stereo not given", "T1": "inactive", "T2": "inactive", "T3": "inactive"}
{"compound": "COc1cc(NC(=O)CNCc2cc(F)ccc2F)ccc1Cl", "T1": "inactive", "T2": "inactive", "T3": "inactive"}
{"compound": "CC(=O)c1c(N)nc2n(c1=O)CCCCC2", "T1": "inactive", "T2": "inactive", "T3": "inactive"}
{"compound": "CC1=C(N)c2ccc(Oc3ccccc3)cc2S1(=O)=O", "T1": "inactive", "T2": "inactive", "T3": "inactive"}